For at least one compound, name, drawing or mass did not settle the structure.
Test system: streptozotocin diabetic rats
Assay: In-vivo efficacy screening in streptozotocin diabetic Sprague Dawley rats, 35 days oral gavage
Settings: pioglitazone 20 mg/kg-body weight
From the text: The number of animals per dose group is five and is kept for examination and acclimatization for a week period at the start of the study. The total number of dose groups is six along with vehicle control. The different groups are G1-Vehicle control, G2-Diabetic control, G-3 Diabetic animals treated with Pioglitazone (Standard anti-diabetic drug). […] Blood is collection under CO2 anesthesia by retro orbital (ROP) plexus method and FBG analysis. Rats are fed with 5% glucose water for two days before STZ injection and are fasted for 12 hours before administering streptozotocin. The rats are injected intra-peritoneal with 45 mg/kg-body weight of streptozotocin in a citrate buffer ph: 4.5 and allowed for week recovery. Rats are fasted for 12 hours after 7th day of STZ injection and blood collected in heparin as the anti-coagulant, under CO2 anesthesia and analyzed for FBG. Rats that have the range of FBG beyond 250 mg/dl and above are considered for the study.
Selection, randomization and grouping of the animals into different treatment groups with the FBG range of 250 mg/dl is undertaken as above. […] The dosage volume administered to individual rat was adjusted according to its most recently recorded body weights. […] All signs of ill health, together with any behavioral changes or reaction to treatment are recorded for individual animals. […]

For `CCc1ccc(CCOc2ccc(CC3SC(=O)NC3=O)cc2)nc1` (stereo not shown) [pioglitazone], the “percent change of postprandial blood glucose from baseline” value was “did not show any significant percent change”.
